This passage reports binding results from paper PMC9072438.

By UniProt entry, the sequences of proteins in these tests, tags left out. Residues count along the entry.
UniProt P27467, residues 19-352: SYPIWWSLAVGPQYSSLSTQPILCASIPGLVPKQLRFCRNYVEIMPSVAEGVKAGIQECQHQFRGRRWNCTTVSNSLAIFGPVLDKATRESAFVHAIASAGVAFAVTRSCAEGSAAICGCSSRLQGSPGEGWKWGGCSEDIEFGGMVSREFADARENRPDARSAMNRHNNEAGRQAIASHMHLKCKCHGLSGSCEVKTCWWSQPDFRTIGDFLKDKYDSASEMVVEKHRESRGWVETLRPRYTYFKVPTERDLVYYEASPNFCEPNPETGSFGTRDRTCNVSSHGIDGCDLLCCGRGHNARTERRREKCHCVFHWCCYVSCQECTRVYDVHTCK

Experiment [1] has as its target mouse WNT3A, N-terminally PA-tagged (mouse) (UniProt P27467). Kind of experiment: co-purification (anti-PA tag NZ-1 antibody column); PA-tagged WNT3A and Target-tagged afamin co-expressed in a stable Expi293F line that secretes the complex; complex purified by the PA tag of WNT3A; dialysed against PBS pH 7.0.
The target in experiment [2] is T1, FZD6-Rluc8 / FZD6-eYFP (BRET constructs) (human) (UniProt O60353).
T1 sequence: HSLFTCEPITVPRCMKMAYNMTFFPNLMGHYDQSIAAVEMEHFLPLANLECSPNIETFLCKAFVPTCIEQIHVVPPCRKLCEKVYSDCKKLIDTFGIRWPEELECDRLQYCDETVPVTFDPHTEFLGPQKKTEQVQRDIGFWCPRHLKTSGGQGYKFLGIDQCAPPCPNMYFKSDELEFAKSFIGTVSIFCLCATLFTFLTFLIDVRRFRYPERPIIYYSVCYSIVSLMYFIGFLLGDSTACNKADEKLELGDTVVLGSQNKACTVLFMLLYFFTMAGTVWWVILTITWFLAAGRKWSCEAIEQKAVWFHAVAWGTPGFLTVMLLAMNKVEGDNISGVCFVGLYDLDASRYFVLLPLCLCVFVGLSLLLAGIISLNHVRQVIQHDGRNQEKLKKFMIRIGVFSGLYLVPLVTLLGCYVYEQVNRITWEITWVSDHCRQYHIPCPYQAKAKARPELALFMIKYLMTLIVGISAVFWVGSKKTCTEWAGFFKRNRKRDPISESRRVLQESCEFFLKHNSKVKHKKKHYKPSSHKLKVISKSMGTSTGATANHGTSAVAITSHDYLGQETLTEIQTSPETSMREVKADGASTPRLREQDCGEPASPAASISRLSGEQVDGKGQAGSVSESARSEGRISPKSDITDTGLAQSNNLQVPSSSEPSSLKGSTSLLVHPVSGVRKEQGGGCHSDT
Description: FRET or BRET; BRET of FZD-Rluc8 with FZD-eYFP (1:5) in living dFZD1-10-/- HEK293T cells, homo-oligomerisation; basal and ligand-induced ΔBRET with WNT3A/afamin 400 ng/ml (against afamin) or WNT5A 500 ng/ml.

No constants are given. Whether binding was seen depends on the method and setting. For some assays here: In cells and extracts the contact can be indirect. Some entries that bind do so weakly or less than the wild type. Where a sequence is shown, tags or fusion partners need not be part of it.

B1: human afamin, N-terminally Target-tagged (protein, UniProt P43652 22-599)
chain: LPTQPRDIENFNSTQKFIEDNIEYITIIAFAQYVQEATFEEMEKLVKDMVEYKDRCMADKTLPECSKLPNNVLQEKICAMEGLPQKHNFSHCCSKVDAQRRLCFFYNKKSDVGFLPPFPTLDPEEKCQAYESNRESLLNHFLYEVARRNPFVFAPTLLTVAVHFEEVAKSCCEEQNKVNCLQTRAIPVTQYLKAFSSYQKHVCGALLKFGTKVVHFIYIAILSQKFPKIEFKELISLVEDVSSNYDGCCEGDVVQCIRDTSKVMNHICSKQDSISSKIKECCEKKIPERGQCIINSNKDDRPKDLSLREGKFTDSENVCQERDADPDTFFAKFTFEYSRRHPDLSIPELLRIVQIYKDLLRNCCNTENPPGCYRYAEDKFNETTEKSLKMVQQECKHFQNLGKDGLKYHYLIRLTKIAPQLSTEELVSLGEKMVTAFTTCCTLSEEFACVDNLADLVFGELCGVNENRTINPAVDHCCKTNFAFRRPCFESLKADKTYVPPPFSQDLFTFHADMCQSQNEELQRKTDRFLVNLVKLKHELTDEELQSLFTNFANVVDKCCKAESPEVCFNEESPKIGN
With B1, the binding result in experiment [1] is “binds”.

B2: FZD6-Rluc8 / FZD6-eYFP (BRET constructs) (receptor, UniProt O60353 19-706)
chain: HSLFTCEPITVPRCMKMAYNMTFFPNLMGHYDQSIAAVEMEHFLPLANLECSPNIETFLCKAFVPTCIEQIHVVPPCRKLCEKVYSDCKKLIDTFGIRWPEELECDRLQYCDETVPVTFDPHTEFLGPQKKTEQVQRDIGFWCPRHLKTSGGQGYKFLGIDQCAPPCPNMYFKSDELEFAKSFIGTVSIFCLCATLFTFLTFLIDVRRFRYPERPIIYYSVCYSIVSLMYFIGFLLGDSTACNKADEKLELGDTVVLGSQNKACTVLFMLLYFFTMAGTVWWVILTITWFLAAGRKWSCEAIEQKAVWFHAVAWGTPGFLTVMLLAMNKVEGDNISGVCFVGLYDLDASRYFVLLPLCLCVFVGLSLLLAGIISLNHVRQVIQHDGRNQEKLKKFMIRIGVFSGLYLVPLVTLLGCYVYEQVNRITWEITWVSDHCRQYHIPCPYQAKAKARPELALFMIKYLMTLIVGISAVFWVGSKKTCTEWAGFFKRNRKRDPISESRRVLQESCEFFLKHNSKVKHKKKHYKPSSHKLKVISKSMGTSTGATANHGTSAVAITSHDYLGQETLTEIQTSPETSMREVKADGASTPRLREQDCGEPASPAASISRLSGEQVDGKGQAGSVSESARSEGRISPKSDITDTGLAQSNNLQVPSSSEPSSLKGSTSLLVHPVSGVRKEQGGGCHSDT
As for B2, the binding result in experiment [2] is recorded as “binds”.
